The text below walks through data of US20180244758A1.

Results are given in words; binding and its absence hold for the method and conditions named. Some entries that bind do so weakly or less than the wild type.

The target in experiment [1] is SUDV GP (Sudan virus (SUDV)) (UniProt Q66814). Put plainly: ELISA, GP antigen coated, mAb at 0.2 µg/ml. Background: ELISA stands for enzyme-linked immunosorbent assay.
Experiment [2] deals with TAFV GP (Tai Forest virus (TAFV)) (UniProt Q66810). In words: ELISA, GP antigen coated, mAb at 0.2 µg/ml.

B1: mAb PE-87 (antibody, V domains shown)
VH: QVQLVQSGVTLVQPGGSLRVSCAASGFTFSSYAMSWVRQAPGKGLEWVSAISGLGGSTYYADSVKGRFTISRDNSKNTLYLQMNSLRAEDTAVYYCAKDHRVWAAGYHFDYWGQGALVTVSS
VL: DIVLTQSPSTLSASVGDRVTITCRASQSISSWLAWYQQKPGEAPKLLISDASSLESGVPSRFSGSGSGTEFTLTISSLQPDDFATYYCQQYYSSPTFGGGTKVEIK
For B1, the binding result in experiment [1] and in experiment [2] was “binds” throughout.

B2: mAb PE-24 (antibody, V domains shown)
VH: EVQLVESGGGLVQPGGSLRLSCAASGFTFSSYAMSWVRQAPGKGLEWVSEISGLGGSTYYADSAKGRFTISRDNSKSTLYLQMNSLRAEDTAVYYCAKDHRVWAPGYYFDHWGQGTLVTVSS
VL: DIVLTQSPSTLSASVGDRVTITCRASQSISSWLAWYQQKPGKAPKLLIYDASSLESGVPSRFSGSGSGTEFTLTISSLQPDDFATYFCQQYNRSPTFGGGTKVEIK
With B2, the binding entry in experiment [1] and in experiment [2] was “binds” each time.

B3: mAb PE-47 (antibody, V domains shown)
VH: EVQLVESGGGLVKPGGSLRLSCAASGFTFSNAWMSWVRQAPGEGLEWVGRIKSKTDGGTIDYAAPVKGRFTISRDDSKNTVYLQMTSLKTEDTAVYYCTTYTEDMQYFDWLLRGGETFDYWGQGTLVTVSS
VL: DIQMTQSPSSLSASVGDRVTITCRASQYISTYLNWYQQKPGKAPKLLIYAAYNLQSGVPSRFSGSGSGTDFTLTISSLQPEDFATYYCQQSYSTPGRYTFGQGTKVEIK
Take B3: the binding entry in experiment [1] and in experiment [2] was “binds” each time.

B4: mAb PE-16 (antibody, V domains shown)
VH: QVQLVQSGAEVTKPGASVKVSCKASGYTFTTYYMHWVRQAPGQGLEWVGIINPSGGITRYAQKFQGRVTLTRDTSTTTVYMELSSLRSEDTAVYYCARDRYPVLFATDYGMDVWGQGTTVTVSS
VL: DIVMTQSPATLSLSPGERATLSCRASQSVSGYLAWYQQKPGQAPRLLIYDASNRATGIPARFSGSGSGTDFTLTISSLEPEDFAVYYCQQRSIWPPGVTFGGGTKVEIK
Consider B4, for which the binding result in experiment [1] and in experiment [2] was “binds” in each case.
